# Measured values from patent US8093273B2, “Flavanoids and isoflavanoids for the prevention and treatment of cardiovascular diseases” (Resverlogix Corp., priority 2004, dated 2012).
# Where a name gives a salt, the structure may show the parent alone. At least one structure is not confirmed: it was looked up by name or label, or the drawing left a doubt.
# Tested on: human ApoA-I promoter
# Experiment: ApoA-I promoter induction in Caco-2 intestinal cells (pAI.474-Luc luciferase reporter)
# Type: cell-based
# Conditions: Caco-2 cells, 15 μM, 48 hours incubation, luciferase activity vs control samples
# Method: To examine the effects of compounds of the invention to increase ApoA-I expression, Caco-2 cells, an intestinal cell line derived from human epithelial intestinal cells, were grown under conditions recommended by the ATCC and summarized in United States Patent Application Publication No. 20040033480 (“Wong”), incorporated herein by reference.
# Briefly, the promoter region of the gene encoding human ApoA-I was isolated and ligated upstream of the firefly luciferase gene to construct the reporter plasmid pAI.474-Luc. This reporter plasmid and pRSV-β-galactosidase (as a control for transfection efficiency) were co-transfected to Caco-2 cells. The Caco-2 cells were then incubated in a MEM selection media containing 20% fetal calf serum supplemented with G418 (final concentration: 0.5 mg/mL, Gibco) to give established strains that stably express from the reporter gene. […]
# After further incubation for 48 hours, the cells were harvested and lysed using Reporter Lysis Buffer (PROMEGA E3971), and 50 μL of luciferase assay reagent (PROMEGA E4550 Luciferase Reporter 1000 assay system) was added to measure luciferase activity with a luminometer (Fluoroskan Ascent FL from Thermo electron Corporation). Luciferase activity was normalized to lysate protein concentrations, measured using Bradford Reagent (BioRad Protein Assay reagent Cat #500-0006). […]
row,Structure (SMILES),ApoA-I Promoter Induction
1,"N=C(N)NCCCC(N)C(=O)Oc1ccc(-c2cc3ccccc3c(=O)[nH]2)cc1 (centres unmarked) [Example 79, 4-(1-Oxo-1,2-dihydroisoquinolin-3-yl)phenyl 2-amino-5-guanidinopentanoate trihydrochloride]",increased
2,"N=C(N)NCCCC(N)C(=O)Oc1ccc(-c2cc3ccccc3cn2)cc1 (centres unmarked) [Example 78, 4-(Isoquinolin-3-yl)phenyl 2-amino-5-guanidinopentanoate tetrahydrochloride]",increased
